# Assay results published in PubChem BioAssay AID1347075 (National Center for Advancing Translational Sciences (NCATS), 2019).
# Values joined by “and” are separate entries in the source; they are usually repeats but may differ in a detail not shown here. Equal values may be shown once. The campaign covered roughly 400,000 compounds. About 5,500 (1.4%) were called active. The inconclusive results got no clear call from the source; some entries with a clear call stand among them for comparison. The call rests on the fitted dose curve; in most records, active means well fitted cell-killing curve with a large enough effect; inconclusive means small, poorly fitted or top-dose-only effect, or effect the other way; inactive means flat fitted curve, though single readings scatter. Where the call is inconclusive, the potency comes from a doubtful curve fit.
# Experiment: qHTS assay for MDR1-selective chemotherapeutics: Primary screen using the parental adenocarcinoma cell KB-3-1; further: nearly all actives have a fitted effect of over 60% in size
# Conditions: KB-3-1 viability, CellTiter-Glo ATP luminescence, 72 h; activity change, negative = cytotoxic: at 46.1 µM (top of the series)
# Procedure, shortened: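 Cytotoxicity measured as CellTiter-Glo luminescence after 72 h at 37 C. Compound titrations were pinned onto drug-naive KB-3-1 parental adenocarcinoma cells grown in DMEM with 10% FBS, and normalized data fitted to concentration-response curves.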
# On the % scale 0 is the no-effect control and ±100 the full control effect; potency means the concentration at half of the fitted maximal effect.
SMILES,"activity change, negative = cytotoxic",Potency
NS(=O)(=O)c1ccc(CNC(=O)c2ccc3ccccc3n2)cc1,inactive: -7.16%,–
CCOC(=O)N1CCC(N2Cc3cccc(C(=O)N4CC(C)CC(C)C4)c3C2=O)CC1 (stereo unspecified),–,"inconclusive: 29.1 µM [cytotoxic, single point]"
Cc1ccc(NC(=O)COC(=O)CCc2c(C)nc3ncnn3c2C)cc1C,–,"inconclusive: 23.1 µM [rising, single point]"
Cc1ccc(S(=O)(=O)/N=C2\C=C(Nc3cccc(C(=O)O)c3)C(=O)c3ccccc32)cc1,–,active: 23.1 µM
COc1cccc(C(C(=O)NC(C)(C)C)N(CCc2ccccc2)C(=O)CCC(=O)Nc2cc(C)on2)c1OC (stereo unspecified),–,"inconclusive: 23.1 µM [cytotoxic, single point]"
Cc1ccc(-c2nn(-c3ccccc3)cc2CN(Cc2ccccc2)C(=O)c2ccco2)o1,–,"inconclusive: 20 µM [cytotoxic, single point]"
Cc1cc(C)cc(C(=O)n2nc(C)c(S(=O)(=O)N3CCOCC3)c2C)c1,inactive: 7.53%,–
O=C(NCC1CCCO1)C(=Cc1cccc([N+](=O)[O-])c1)C(=O)NCC1CCCO1 (stereo unspecified),–,"inconclusive: 29.1 µM [cytotoxic, single point]"
CCOC(=O)N1CCC(N(CCN(C)C)C(=S)Nc2cccc(C)c2)CC1,inactive: 10.2%,–
CCOC(=O)c1c(NC(=O)c2ccc(F)cc2)sc2c1CCC(CC)C2 (stereo unspecified),–,"inconclusive: 16.4 µM [rising, partial curve]"
CCN1CCN(c2cc(SC(C)C)nc(-c3ccc(OC)cc3)n2)CC1,–,"inconclusive: 29.1 µM [cytotoxic, single point]"
CC(=C/c1ccccc1)/C=N/n1c(C)n[nH]c1=S,–,"inconclusive: 29.1 µM [cytotoxic, partial curve, poor fit]"
CCOc1cc(/C=C2\CN(CC)C/C(=C\c3ccc(O)c(OCC)c3)C2=O)ccc1O,–,"inconclusive: 2.31 µM [cytotoxic, full curve, poor fit]"
CCCCNc1c(-c2ccc(-c3ccc(C(C)=O)cc3)c(OC)c2)nc2cc(C)ccn12,–,"inconclusive: 25.9 µM [cytotoxic, single point]"
ClC1=CN(C2=NCCC2)CC1,inactive: 0%,–
COc1ccc(C(=O)NC(=S)Nc2ccccc2N2CCOCC2)cc1[N+](=O)[O-],–,"inconclusive: 29.1 µM [cytotoxic, single point]"
CC1CCc2nc(NC(=O)CN3CCN(c4ccc(F)cc4)CC3)sc2C1 (stereo unspecified),inactive: -11.7%,–
CCCCOc1ccc(S(=O)(=O)NNC(=O)C2Cc3c(ccc4ccccc34)O2)cc1 (stereo unspecified),inactive: 3.12%,–
O=C(COc1ccc(Cl)cc1)Nc1ccc(N2CCN(C(=O)c3ccco3)CC2)cc1,–,"inconclusive: 25.9 µM [cytotoxic, single point]"
CC1(C)Cc2nc3oc4c(NCc5ccccc5)ncnc4c3cc2CO1,–,"inconclusive: 32.6 µM [cytotoxic, single point]"
O=C(CSCc1c(Cl)cccc1Cl)Nc1ccc2c(c1)OCCO2,–,"inconclusive: 32.6 µM [cytotoxic, single point]"
OC(c1ccccc1)(c1ccc(F)cc1)C(c1ccccc1)N1CCOCC1 (stereo unspecified),–,"inconclusive: 29.1 µM [cytotoxic, single point]"
Cc1cc(C)cc(NC(=O)C[n+]2ccccc2)c1,inactive: -14.7%,–
COc1ccc([C@H]2CC(=O)C=C(c3cccc4c3Oc3ccccc3S4)C2)cc1OC,–,"inconclusive: 29.1 µM [cytotoxic, single point]"

# Among those listed so far, these have sulfur.
SMILES,"activity change, negative = cytotoxic",Potency
NS(=O)(=O)c1ccc(CNC(=O)c2ccc3ccccc3n2)cc1,inactive: -7.16%,–
Cc1ccc(S(=O)(=O)/N=C2\C=C(Nc3cccc(C(=O)O)c3)C(=O)c3ccccc32)cc1,–,active: 23.1 µM
Cc1cc(C)cc(C(=O)n2nc(C)c(S(=O)(=O)N3CCOCC3)c2C)c1,inactive: 7.53%,–
CCOC(=O)N1CCC(N(CCN(C)C)C(=S)Nc2cccc(C)c2)CC1,inactive: 10.2%,–
CCOC(=O)c1c(NC(=O)c2ccc(F)cc2)sc2c1CCC(CC)C2 (stereo unspecified),–,"inconclusive: 16.4 µM [rising, partial curve]"
CCN1CCN(c2cc(SC(C)C)nc(-c3ccc(OC)cc3)n2)CC1,–,"inconclusive: 29.1 µM [cytotoxic, single point]"
CC(=C/c1ccccc1)/C=N/n1c(C)n[nH]c1=S,–,"inconclusive: 29.1 µM [cytotoxic, partial curve, poor fit]"
COc1ccc(C(=O)NC(=S)Nc2ccccc2N2CCOCC2)cc1[N+](=O)[O-],–,"inconclusive: 29.1 µM [cytotoxic, single point]"
CC1CCc2nc(NC(=O)CN3CCN(c4ccc(F)cc4)CC3)sc2C1 (stereo unspecified),inactive: -11.7%,–
CCCCOc1ccc(S(=O)(=O)NNC(=O)C2Cc3c(ccc4ccccc34)O2)cc1 (stereo unspecified),inactive: 3.12%,–
O=C(CSCc1c(Cl)cccc1Cl)Nc1ccc2c(c1)OCCO2,–,"inconclusive: 32.6 µM [cytotoxic, single point]"
COc1ccc([C@H]2CC(=O)C=C(c3cccc4c3Oc3ccccc3S4)C2)cc1OC,–,"inconclusive: 29.1 µM [cytotoxic, single point]"

# Additional structures

SMILES,"activity change, negative = cytotoxic",Potency
Cc1cccc(NS(=O)(=O)c2ccc(-c3cnc(C4CC4)o3)cc2)c1C,–,active: 0.184 µM
CC1(C(=O)NCc2ccco2)Cc2c(-c3ccccc3)ccnc2O1 (stereo unspecified),–,active: 8.2 µM
CC(C)OC(=S)N/C(=N\S(=O)(=O)c1ccccc1)c1ccccc1,inactive: 4.86%,–
Cc1cccc(C)c1NC(=S)NC(=O)c1ccc(Br)o1,inactive: 4.32%,–
Nc1c(N(CCC2=CCCCC2)C(=O)c2ccc([N+](=O)[O-])o2)c(=O)[nH]c(=O)n1Cc1ccccc1,–,"inconclusive: 23.1 µM [rising, single point]"
CCCCCCN1C=CC=C/C1=C/C=C(C#N)C#N,inactive: 12.4%,–
O=Nc1ccc(/C=C/c2ccnc3ccccc23)cc1,inactive: 0.971%,–
Cc1nn(-c2ccccc2)c2sc(C(=O)NNC(=O)COc3cccc4ccccc34)cc12,–,"inconclusive: 29.1 µM [cytotoxic, single point]"
O=C(NC(c1ccc2c(c1)OCO2)c1ccccn1)C1CCN(CCOc2ccccc2)CC1 (stereo unspecified),inactive: -0.0104%,–
CCOc1ccccc1NC(=O)c1nc(S(=O)(=O)Cc2cccc(C)c2)ncc1Cl,–,"inconclusive: 29.1 µM [cytotoxic, single point] and active: 5.17 µM"
CCc1ccc(-c2cc(C)no2)cc1S(=O)(=O)N1CCC(C)CC1,–,"inconclusive: 6.51 µM [cytotoxic, partial curve]"
Cc1cccc(N2CC(C(=O)Nc3nnc(SCCC4OCCO4)s3)CC2=O)c1 (stereo unspecified),inactive: 21.2%,–
O=C(CNC(=O)C1CCCCC1)OCC(=O)c1ccc(C2CCCCC2)cc1,inactive: 0%,–
Cc1cc(C)c2ccc3c(C)c(C)nc3c2[nH]1,–,"inconclusive: 20.6 µM [cytotoxic, single point]"
Cc1ccsc1C(=O)Nc1ccc2c(c1)OCCO2,–,"inconclusive: 29.1 µM [cytotoxic, single point]"
Cc1ccc(NC(=O)CSc2nc3ccccc3c(=O)n2CCCC(=O)N2CCCC2)cc1,–,active: 6.31 µM
Cc1[nH]c2ccc(C(=O)NCCCN3CCCCC3)cc2c1C,–,inactive
O=C(/C=C/c1ccc([N+](=O)[O-])cc1)c1ccccc(=O)c1O,–,"inconclusive: 5.8 µM [cytotoxic, full curve]"
COC(=O)c1ccc(NC(=O)CSC2=NCCN2)cc1,–,"inconclusive: 18.4 µM [cytotoxic, single point]"
Cc1cc(NC(=O)OC2CCCCC2)ccc1[N+](=O)[O-],inactive: 2.62%,–
COc1ccc(-c2nc(NC(=O)c3ccco3)sc2C)cc1,inactive: -1.33%,–
Cc1nc2c(c(C)c1CCC(=O)NCc1ccc(F)cc1)c(=O)n(C)c(=O)n2C,inactive: -1.85%,–
COC(=O)C1=C(C(=O)OC)[C@]2([C@H]3C/C=C\CN[C@@H](Cc4ccccc4)C(=O)N3Cc3ccccc3)C=C[C@H]1O2,–,"inconclusive: 18.4 µM [cytotoxic, single point]"
O=C(CCl)N1N=C(c2ccco2)CC1c1cccs1 (stereo unspecified),–,"inconclusive: 20.6 µM [cytotoxic, single point]"

SMILES,"activity change, negative = cytotoxic",Potency
Cc1cc(-c2nc(-c3ccc(C(C)(C)C)cc3)no2)no1,inactive: -19.6%,–
CN(C)CCNC(=O)/C(=C/c1ccc(-c2ccc(Cl)cc2)o1)NC(=O)c1ccccc1,–,"inconclusive: 29.1 µM [cytotoxic, single point]"
COc1ccc(-c2cc(CCCC(=O)NCCc3cc(OC)ccc3OC)no2)cc1,–,"inconclusive: 18.4 µM [cytotoxic, single point]"
CNS(=O)(=O)c1ccc(NC(=O)C2c3ccccc3Oc3ccccc32)cc1,inactive: -22%,–
COc1cc(OC)cc(C(=O)NNC(=O)C(=O)Nc2cc(OC)c(Cl)cc2OC)c1,–,"inconclusive: 20.6 µM [rising, partial curve, poor fit]"
COc1ccc(OC)c(CCNC(=O)Cn2cccc2C(=O)c2ccccc2C)c1,inactive: 5.99%,–
CCCN(CC(=O)Nc1ccccc1C)C(=O)c1nn(CC)c(=O)c2ccccc12,inactive: 3.95%,–
CCOC(=O)c1c(C)oc2c1c(C(c1cccnc1)N1CCOCC1)c(O)c1ccccc12 (stereo unspecified),–,"inconclusive: 20.6 µM [cytotoxic, single point]"
CC(C)(C)OC(=O)NN1CC(=O)N2[C@@H](Cc3c([nH]c4ccccc34)C2(C)C)C1=O,inactive: 20.7%,–
CCOc1ccccc1NC(=O)Cn1nnc(C(=O)NCc2cccs2)c1N,–,active: 0.259 µM
O=C(NCc1ccccc1)c1ccc(C(=O)N(C2CCCCC2)C2CCCCC2)cc1,–,"inconclusive: 29.1 µM [cytotoxic, single point]"
O=C(Nc1ccc2c(c1)CCCN2C(=O)c1cccs1)c1cccc(F)c1,–,"inconclusive: 4.11 µM [cytotoxic, partial curve, poor fit]"
CC(=O)c1ccccc1OCc1ccc(S(=O)(=O)Cc2ccccc2)cc1,–,"inconclusive: 16.4 µM [cytotoxic, partial curve, poor fit]"
CCOc1c(Br)cc(C2C=C(C(=O)O)Nc3ncnn32)cc1OC (stereo unspecified),inactive: 4.89%,–
CCOC(=O)c1sc(-c2ccccc2)cc1NC(=O)Nc1ccc([N+](=O)[O-])cc1,–,"inconclusive: 20.6 µM [cytotoxic, partial curve, poor fit]"
CC(C)C[C@H](N)c1nnc(SCc2ccc(Cl)cc2Cl)o1,inactive: -1.42%,–
Cc1oc(-c2ccc(Cl)cc2)nc1CSCC(=O)NC1CCN(Cc2ccccc2)CC1,–,"inconclusive: 7.31 µM [cytotoxic, partial curve]"
O=C(CSc1nc2ccccc2c(=O)[nH]1)Nc1ccc([N+](=O)[O-])cc1,–,"inconclusive: 29.1 µM [cytotoxic, single point]"
CC1Sc2n(c3ccccc3[n+]2C)N=C1c1ccccc1 (stereo unspecified),–,active: 7.31 µM
COc1cc(CC(=O)OCC(=O)c2ccc3c(c2)OCCO3)cc(OC)c1OC,–,active: 1.03 µM
CCn1cc([N+](=O)[O-])c(C(=O)N2N=C(c3ccc(Cl)c(Cl)c3)CC2c2ccccc2O)n1 (stereo unspecified),–,"inconclusive: 29.1 µM [cytotoxic, single point]"
O=C(Nc1cccc(Cl)c1)c1nc[nH]c1C(=O)Nc1ccccc1F,–,"inconclusive: 0.82 µM [cytotoxic, partial curve]"
CC(C)CN1CCC(=O)N([C@H](CSc2ccccc2)Cc2ccccc2)CC1,–,"inconclusive: 29.1 µM [cytotoxic, single point]"

# Full records as entered above:
# O=C(Nc1ccc2c(c1)CCCN2C(=O)c1cccs1)c1cccc(F)c1 as listed: Potency: inconclusive: 4.11 µM [cytotoxic, partial curve, poor fit]
# CC(C)C[C@H](N)c1nnc(SCc2ccc(Cl)cc2Cl)o1 as listed: activity change, negative = cytotoxic: inactive: -1.42%
